Results published in publication PMC1847842.
Results are given in words; binding and its absence hold for the method and conditions named. Some entries that bind do so weakly or less than the wild type.

T1: mouse wt DMC1 (mouse) (UniProt Q61880)
T1 sequence: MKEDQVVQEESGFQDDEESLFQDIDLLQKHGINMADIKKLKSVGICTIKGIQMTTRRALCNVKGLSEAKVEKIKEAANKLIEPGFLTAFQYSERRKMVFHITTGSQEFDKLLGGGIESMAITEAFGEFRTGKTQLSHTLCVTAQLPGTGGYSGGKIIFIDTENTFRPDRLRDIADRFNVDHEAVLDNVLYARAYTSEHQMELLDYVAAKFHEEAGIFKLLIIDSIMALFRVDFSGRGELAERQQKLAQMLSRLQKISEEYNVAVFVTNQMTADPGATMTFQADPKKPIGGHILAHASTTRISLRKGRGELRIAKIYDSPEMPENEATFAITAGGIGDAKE


How the values were obtained:
mouse wt DMC1 (mouse) = target: T1, mouse wt DMC1 (mouse); assay: two-hybrid; yeast two-hybrid; mouse wt DMC1 and DMC1^Mei11 as bait and prey; strains grown on SD-Leu/Trp/His/Ade agar plates
mouse DMC1^Mei11 (mouse) = mouse DMC1^Mei11 (mouse) (UniProt Q61880); assay: as above

binding (mouse wt DMC1 (mouse)) | binding (mouse DMC1^Mei11 (mouse)) | Binder
binds | binds | mouse DMC1^Mei11 (protein, UniProt Q61880 1-340) MKEDQVVQEESGFQDDEESLFQDIDLLQKHGINMADIKKLKSVGICTIKGIQMTTRRALCNVKGLSEAKVEKIKEAANKLIEPGFLTAFQYSERRKMVFHITTGSQEFDKLLGGGIESMAITEAFGEFRTGKTQLSHTLCVTAQLPGTGGYSGGKIIFIDTENTFRPDRLRDIADRFNVDHEAVLDNVLYARAYTSEHQMELLDYVAAKFHEEAGIFKLLIIDSIMALFRVDFSGRGELAERQQKLAQMLSRLQKISEEYNVAVFVTNQMTPDPGATMTFQADPKKPIGGHILAHASTTRISLRKGRGELRIAKIYDSPEMPENEATFAITAGGIGDAKE
binds |  | mouse wt DMC1 (protein, UniProt Q61880 1-340) MKEDQVVQEESGFQDDEESLFQDIDLLQKHGINMADIKKLKSVGICTIKGIQMTTRRALCNVKGLSEAKVEKIKEAANKLIEPGFLTAFQYSERRKMVFHITTGSQEFDKLLGGGIESMAITEAFGEFRTGKTQLSHTLCVTAQLPGTGGYSGGKIIFIDTENTFRPDRLRDIADRFNVDHEAVLDNVLYARAYTSEHQMELLDYVAAKFHEEAGIFKLLIIDSIMALFRVDFSGRGELAERQQKLAQMLSRLQKISEEYNVAVFVTNQMTADPGATMTFQADPKKPIGGHILAHASTTRISLRKGRGELRIAKIYDSPEMPENEATFAITAGGIGDAKE
